Data as given in PubChem BioAssay AID686937 (Drosophila RNAi Screening Center, 2013).
The deposit covers about 23,000 reagents; below is a random part of those with a known target gene and a result. 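Reduced-secretion tags in replicate 1 do not always agree with the z-scores; no criterion for assigning the tags was given.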 The numbers tell different reagents against one gene apart. Further read-outs or replicates are left out here. Not stated in the record: the amount of reagent.

Screen: 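Knock-downs that reduce output of a secreted reporter enzyme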 (primary screen)
Cells: Drosophila S2 cells expressing secreted horseradish peroxidase
Knock-down reagent: long dsRNA against Drosophila genes
Time to read-out: about 5.5 days (5 days dsRNA, then 12 h reporter induction)
Conditions: reporter expression induced after 5 days of dsRNA, read 12 h later; inducer not stated
Measurement: 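Chemiluminescent measurement of peroxidase in the medium 12 h after reporter induction, following 5 days of dsRNA, given as a z-score per plate; higher means more secretion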
Reading the numbers: z-score: higher = more reporter secreted into medium

| predicted target | dsRNA no. | z-score, replicate 1 | z-score, replicate 2 |
| --- | --- | --- | --- |
| CalpB (Calpain-B) | 1 | 0.25 | 0.11 |
| Sps2 (Selenophosphate synthetase 2) | 1 | 0.02 | 0.2 |
| CG10026 | 1 | 0.62 | 0.44 |
| ref(2)P (refractory to sigma P) | 1 | 1.65 | 0.36 |
| CG42579 | 1 | 0.34 | -1.16 |
| CG14740 | 1 | 0.22 | 0.29 |
| CG6511 | 1 | 0.11 | 0.11 |
| CG9215 | 1 | 0.24 | 0.36 |
| Sec23 (Secretory 23) | 1 | -3.16 | -1.75 |
| CG16736 | 1 | -0.1 | 0.39 |
| CG15021 | 1 | 0.2 | 0.39 |
| CG9855 | 1 | 0.19 | 0.04 |
| CG14330 | 1 | 0.06 | 0.46 |

Next part, starting with the last 3 of the part before.
| predicted target | dsRNA no. | z-score, replicate 1 | z-score, replicate 2 |
| --- | --- | --- | --- |
| CG15021 | 1 | 0.2 | 0.39 |
| CG9855 | 1 | 0.19 | 0.04 |
| CG14330 | 1 | 0.06 | 0.46 |
| sut1 (sugar transporter 1) | 1 | 0.37 | 0.44 |
| CG14075 | 1 | 0.49 | 0.43 |
| CG10809 | 1 | 0.53 | 0.5 |
| CG12024 | 1 | 0.42 | 0.27 |
| RpL19 (Ribosomal protein L19) | 1 | -4.75 | -6.44 |
| bol (boule) | 1 | 0.12 | 0.38 |
| bol (boule) | 2 | 0.37 | -0.23 |
| bol (boule) | 3 | -0.51 | -0.62 |
| Nazo | 1 | -0.48 | -0.62 |
| CG6695 | 1 | 0.34 | 0.33 |
| Taf12 (TBP-associated factor 12) | 1 | 0.22 | -0.21 |
| Sara (Smad anchor for receptor activation) | 1 | 0.1 | 0.26 |
| CG12729 | 1 | 0.33 | 0.23 |
| NdufA3 (NADH:ubiquinone oxidoreductase subunit A3) | 1 | 0.32 | 0.05 |
| Uck (Uridine-cytidine kinase) | 1 | 0.28 | 0.2 |
| Uck (Uridine-cytidine kinase) | 2 | -0.57 | -0.73 |
| Snx16 (Sorting nexin 16) | 1 | 0.25 | 0.41 |
| nxf4 (nuclear export factor 4) | 1 | 0.19 | 0.27 |
| Pburs (Partner of Bursicon) | 1 | 0.34 | 0.32 |
| CG14691 | 1 | 0.21 | -0.55 |
